Experimental data reported in patent US20120202799A1, “Condensed Azepine Derivatives As Bromodomain Inhibitors” (priority 2009, published 2012).
Some entries share one result that the patent states for a list of compounds. At least one structure is not confirmed: it was looked up by name or label, or the drawing left a doubt.

These compounds were tested against T1, Bromodomain 2, 3 and 4 (BRD2, BRD3 and BRD4) (assay: Fluorescence Anisotropy Binding Assay). Conditions: result stated for one or more of BRD2, BRD3 and BRD4, target not specified per compound.
T1 construct: fused on or other part: six-His tag at the N-terminus
Design: species or system Human
Method: All data was normalized to the mean of 16 high and 16 low control wells on each plate. A four parameter curve fit of the following form was then applied:
y=a+((b−a)/(1+(10̂x/10̂c)̂d)
The His-tagged Bromodomain was extracted from E. coli cells using 0.1 mg/ml lysozyme and sonication. […] Further purification was completed by Superdex 200 prep grade size exclusion column. Purified protein was stored at −80 C in 20 mM HEPES pH 7.5 and 100 mM NaCl.

Row | SMILES | pIC50 in one or more of the BRD2, BRD3 and BRD4 assays
1 | Cc1nnc2n1-c1ccccc1C(c1ccccc1)=NC2NC(=O)OCc1ccccc1 (single isomer, unassigned; (+)) [Example 27, (+)-phenylmethyl (1-methyl-6-phenyl-4H-[1,2,4]triazolo[4,3-a][1,4]benzodiazepin-4-yl)carbamate] | ≥ 6.0
2 | Cc1nnc2n1-c1sccc1C(c1ccccc1)=NC2NC(=O)OCc1ccccc1 (stereo not drawn) [Example 12, phenylmethyl (9-methyl-4-phenyl-6H-thieno[3,2-f][1,2,4]triazolo[4,3-a][1,4]diazepin-6-yl)carbamate] | ≥ 6.0
3 | CCc1nnc2n1-c1ccccc1C(c1ccccc1)=NC2NC(=O)OCc1ccccc1 (stereo not drawn) [Example 15, phenylmethyl (1-ethyl-6-phenyl-4H-[1,2,4]triazolo[4,3-a][1,4]benzodiazepin-4-yl)carbamate] | ≤ 5.0
4 | Cc1nnc2n1-c1ccc(Br)cc1C(c1ccccc1F)=NC2NC(=O)OCc1ccccc1 (stereo not drawn) [Example 17, phenylmethyl [8-bromo-6-(2-fluorophenyl)-1-methyl-4H-[1,2,4]triazolo[4,3-a][1,4]benzodiazepin-4-yl]carbamate] | ≤ 5.0
5 | CCOC(=O)NC1N=C(c2ccc(F)cc2)c2ccccc2-n2c(C)nnc21 (stereo not drawn) [Example 23, ethyl [6-(4-fluorophenyl)-1-methyl-4H-[1,2,4]triazolo[4,3-a][1,4]benzodiazepin-4-yl]carbamate] | ≤ 5.0
6 | CCOC(=O)NC1N=C(c2ccc(OC)cc2)c2ccccc2-n2c(C)nnc21 (stereo not drawn) [Example 31, ethyl {1-methyl-6-[4-(methyloxy)phenyl]-4H-[1,2,4]triazolo[4,3-a][1,4]benzodiazepin-4-yl}carbamate] | ≥ 6.0
7 | COc1ccc(/C=C/C(=O)NC2N=C(c3ccccc3)c3ccccc3-n3c(C)nnc32)cc1 (stereo not drawn) [Example 56, (2E)-3-[4-(methyloxy)phenyl]-N-(1-methyl-6-phenyl-4H-[1,2,4]triazolo[4,3-a][1,4]benzodiazepin-4-yl)-2-propenamide] | ≥ 6.0
8 | Cc1nnc2n1-c1ccccc1C(c1ccccc1)=NC2NC(=O)/C=C/c1ccc(Cl)cc1 (stereo not drawn) [Example 57, (2E)-3-(4-chlorophenyl)-N-(1-methyl-6-phenyl-4H-[1,2,4]triazolo[4,3-a][1,4]benzodiazepin-4-yl)-2-propenamide] | ≥ 6.0
9 | Cc1nnc2n1-c1ccccc1C(c1ccccc1)=NC2NC(=O)/C=C/c1cccs1 (stereo not drawn) [Example 58, (2E)-N-(1-methyl-6-phenyl-4H-[1,2,4]triazolo[4,3-a][1,4]benzodiazepin-4-yl)-3-(2-thienyl)-2-propenamide] | ≥ 6.0
10 | Cc1nnc2n1-c1ccc(I)cc1C(c1ccccc1)=NC2NC(=O)Nc1ccc(C(=O)c2ccccc2)cc1 (stereo not drawn) [Example 79, N-(8-iodo-1-methyl-6-phenyl-4H-[1,2,4]triazolo[4,3-a][1,4]benzodiazepin-4-yl)-N′-[4-(phenylcarbonyl)phenyl]urea] | ≤ 5.0
11 | Cc1nnc2n1-c1ccccc1C(c1ccccc1)=NC2NC(=S)Nc1ccc(N=[N+]=[N-])cc1 (stereo not drawn) [Example 81, N-(4-azidophenyl)-N′-(1-methyl-6-phenyl-4H-[1,2,4]triazolo[4,3-a][1,4]benzodiazepin-4-yl)thiourea] | ≤ 5.0
12 | CCc1ccc(C(=O)NC2N=C(c3ccccc3)c3ccccc3-n3c(C)nnc32)cc1 (stereo not drawn) [Example 97, 4-ethyl-N-(1-methyl-6-phenyl-4H-[1,2,4]triazolo[4,3-a][1,4]benzodiazepin-4-yl)benzamide] | ≥ 6.0
